Source: PubChem BioAssay AID493246 (Drosophila RNAi Screening Center, 2011)
Aim: 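Genome-wide search for dsRNAs that reduce cell number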 (primary screen). System: Drosophila Kc and S2R+ cells. Knock-down reagent: long dsRNA against Drosophila genes. Read-out: 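Raw, unnormalised count of remaining cells in each well; per-plate z-scores of cell number underlie the calls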. Scale: Kc cell number and S2R+ cell number: higher = more cells remaining. Hit rule: 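Counted as a hit if cell number falls by a z-score of at least 3 within its plate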.
The screen tested about 21,000 reagents; shown is an unselected part of those with a known target gene and a result. Of all reagents, 429 (2%) got an active call. 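Values are raw and not normalised between plates; calls rest on per-plate z-scores that were not deposited.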 Entries without a mark were called inactive. The record does not give: the amount of reagent, the time to read-out.

What is on record for Sec15 (Secretory 15) [DRSC16179]?
Kc cell number, rep 1: 1.54e6; Kc cell number, rep 2: 1.74e6; S2R+ cell number, rep 1: 1.06e6; S2R+ cell number, rep 2: 1.13e6

With CG13717 (retired record) [DRSC08324], how do the results read?
Kc cell number, rep 1: 1.48e6; Kc cell number, rep 2: 1.40e6; S2R+ cell number, rep 1: 1.04e6; S2R+ cell number, rep 2: 1.11e6

For CG13717 (retired record) [DRSC08326], how do the results read?
Kc cell number, rep 1: 1.50e6; Kc cell number, rep 2: 1.47e6; S2R+ cell number, rep 1: 8.71e5; S2R+ cell number, rep 2: 1.01e6

With CG2233 [DRSC18217], what does the deposit list?
Kc cell number, rep 1: 5.43e5; S2R+ cell number, rep 1: 8.85e5

What did the screen give for CG10631 [DRSC02081]?
Kc cell number, rep 1: 1.42e6; Kc cell number, rep 2: 1.45e6; S2R+ cell number, rep 1: 1.39e6; S2R+ cell number, rep 2: 1.41e6

With Alg7 [DRSC02833], how do the results read?
Kc cell number, rep 1: 1.44e6; Kc cell number, rep 2: 1.62e6; S2R+ cell number, rep 1: 1.23e6; S2R+ cell number, rep 2: 1.34e6

How did the screen score Alg7 [DRSC02834]?
Kc cell number, rep 1: 1.62e6; Kc cell number, rep 2: 1.68e6; S2R+ cell number, rep 1: 1.33e6; S2R+ cell number, rep 2: 1.50e6

For CG5162 [DRSC19935], what does the deposit list?
Kc cell number, rep 1: 1.54e6; Kc cell number, rep 2: 1.55e6; S2R+ cell number, rep 1: 1.18e6; S2R+ cell number, rep 2: 1.33e6

For Arl2 (ADP ribosylation factor-like 2) [DRSC14117], what does the deposit list?
Kc cell number, rep 1: 1.46e6; Kc cell number, rep 2: 1.55e6; S2R+ cell number, rep 1: 1.22e6; S2R+ cell number, rep 2: 1.39e6

What did the screen give for CG15194 (retired record) [DRSC19642]?
Kc cell number, rep 1: 1.62e6; Kc cell number, rep 2: 1.69e6; S2R+ cell number, rep 1: 1.03e6; S2R+ cell number, rep 2: 1.16e6

With CG15194 (retired record) [DRSC19777], what does the deposit list?
Kc cell number, rep 1: 1.59e6; Kc cell number, rep 2: 1.64e6; S2R+ cell number, rep 1: 1.01e6; S2R+ cell number, rep 2: 1.15e6

For qkr54B (quaking related 54B) [DRSC07670], what does the deposit list?
Kc cell number, rep 1: 1.45e6; Kc cell number, rep 2: 1.55e6; S2R+ cell number, rep 1: 1.11e6; S2R+ cell number, rep 2: 1.23e6

Just “S2R+ cell number, rep 2”, for 2 of the entries above:
CG15194 (retired record) [DRSC19777] = 1.15e6
qkr54B (quaking related 54B) [DRSC07670] = 1.23e6
